Test results from US20090226427A1, “NOVEL PHARMACEUTICAL COMPOSITIONS FOR MODULATING ANGIOGENESIS” (priority 1999, published 2009).

Experiments:
[1] = system: caveolin/eNOS interaction; conditions: CMECs
CMECs = conditions: serum-stimulated
AECs = conditions: statin-exposed aortic ECs, serum-stimulated
hsp90/eNOS interaction = assay: hsp90/eNOS co-immunoprecipitation, CMECs; format: cell-based, Mouse; conditions: CMECs exposed for 3 hours

## CC(C)c1c(C(=O)Nc2ccccc2)c(-c2ccccc2)c(-c2ccc(F)cc2)n1CC[C@@H](O)C[C@@H](O)CC(=O)O [atorvastatin]
[1]
  cell eNOS pool bound to caveolin (reverse IP): not altered
CMECs
  FC efflux: failed, indeed, to modulate
AECs
  cholesterol efflux: nearly complete blockade
hsp90/eNOS interaction
  increase of hsp90/eNOS interaction: ~5 fold
